The exact form of at least one protein or probe is not confirmed.

This series has as its system PuPuf4 (Pythium ultimum). Nature of the series: EMSA. Particulars: EMSA: Beyotime EMSA/Gel-Shift Binding Buffer, 50 ng RNA, 25 C 30 min, 1% agarose gel; recombinant protein; protein details: GST (N-terminal, pGEX-4T-2); label: FAM.

“GCCCAGUGCUCUGAAUGUCAAAGUGAAGAGAUUCACCAAGCGGCGGGUAAACGCG [H68 rRNA]”: the binding result is “binds”.
